# Assay results as given in PubChem BioAssay AID1671190 (National Center for Advancing Translational Sciences (NCATS), 2021).
# By UniProt entry, the sequences of proteins in these tests, tags left out. Where a name states a change or a piece, a line headed by the entry shows the natural chain unless it says otherwise.
# UniProt P18054: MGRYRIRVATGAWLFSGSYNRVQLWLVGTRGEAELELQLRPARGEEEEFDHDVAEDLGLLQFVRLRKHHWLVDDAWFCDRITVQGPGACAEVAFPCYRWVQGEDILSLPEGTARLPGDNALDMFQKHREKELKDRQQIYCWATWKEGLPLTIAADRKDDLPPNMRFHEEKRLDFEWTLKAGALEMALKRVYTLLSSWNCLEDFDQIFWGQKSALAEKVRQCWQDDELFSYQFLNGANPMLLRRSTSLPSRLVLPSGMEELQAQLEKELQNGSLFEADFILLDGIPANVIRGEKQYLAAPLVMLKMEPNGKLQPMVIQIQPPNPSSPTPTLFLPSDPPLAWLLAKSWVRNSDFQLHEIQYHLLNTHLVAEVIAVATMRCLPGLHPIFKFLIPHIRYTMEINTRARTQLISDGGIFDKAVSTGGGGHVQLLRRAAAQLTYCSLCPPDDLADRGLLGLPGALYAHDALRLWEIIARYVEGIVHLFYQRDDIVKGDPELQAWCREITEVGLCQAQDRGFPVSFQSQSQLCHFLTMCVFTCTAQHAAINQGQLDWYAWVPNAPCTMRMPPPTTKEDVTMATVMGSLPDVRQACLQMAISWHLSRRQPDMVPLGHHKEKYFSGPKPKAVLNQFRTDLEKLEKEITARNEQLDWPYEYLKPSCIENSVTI
# The whole screen tested about 580,000 compounds, of which about 6,100 (1.1%) were called active. The inconclusive results got no clear call from the source; some entries with a clear call stand among them for comparison. Calls follow the shape of the dose curve; as a rule, active = well fitted inhibition curve with a large enough effect; inconclusive = small, poorly fitted or top-dose-only effect, or another doubt; inactive = no such curve, though single readings can be large or run the other way. A potency beside an inconclusive call is a rough fit, not a confirmed value.
# Target: Polyunsaturated fatty acid lipoxygenase ALOX12 (Homo sapiens) (UniProt P18054)
# Experiment: Primary qHTS assay for inhibitors of human arachidonate 12S-lipoxygenase (ALOX12): Round 2
# Conditions: purified 12hLO, xylenol orange hydroperoxide absorbance; activity change, negative = inhibition: at 108 µM (top of the series) unless noted
# Method in brief: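 Purified human 12hLO (150 nM final) in 25 mM Hepes, 0.01% Triton X-100, pH 7.0 was preincubated 15 min at room temperature with compound. Then 40 uM arachidonic acid was added, 30 min. Hydroperoxide was read by Fe-XO absorbance ratio 573/405 nm.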
# % is scaled to controls: 0 for no effect and ±100 for the full control effect; potency is read from the fitted curve at half-maximal effect.
SMILES,Potency,"activity change, negative = inhibition"
CC1=C(C(=O)Nc2cccc(C)c2C)C(c2cccs2)NC(=S)N1 (stereo not given),"inconclusive: 126 µM [inhibitor, single point]",–
CN(C)c1ccc(S(=O)(=O)N2CCCCC2)cc1NC(=O)CN1C(=O)NC(C)(c2ccccc2)C1=O (stereo not given),"inconclusive: 5.62 µM [inhibitor, full curve]",–
COc1ccc(-c2nnc(CN3CCCC3c3cccn3C)o2)cc1 (stereo not given),inactive,–
Cc1nc(-c2c3n(c(=O)n(CC(=O)Nc4ccc(Cl)cc4)c2=O)CCCCC3)no1,"inconclusive: 10 µM [inhibitor, full curve]",–
Cn1nc(C(=O)N2CCc3sccc3C2)c2ccccc2c1=O,inactive,–
CCOc1ccccc1NC(=O)C1CCN(C(=O)C2CC(=O)N(c3ccc(C)cc3)C2)CC1 (stereo not given),inactive,–
Cc1ccc(-c2nnc(SCC(=O)N3CCCC3)o2)cc1C,"inconclusive: 22.4 µM [inhibitor, full curve, poor fit]",–
COCCn1nnnc1C(c1cccc(C#N)c1)N1CCCCCC1 (stereo not given),"inconclusive: 2 µM [inhibitor, full curve, poor fit]",–
CCn1c(CNC(=O)c2ccccc2F)nnc1SCC(=O)Nc1nncs1,"inconclusive: 35.5 µM [inhibitor, partial curve]",–
O=C(C1CCC1)N1CCC(C(=O)N2CC(Oc3ccccc3)C2)CC1,inactive,–
CN1CCN(c2ccccc2NC(=O)c2ccc(-c3ccc(Cl)c(Cl)c3)o2)CC1,"inconclusive: 100 µM [inhibitor, partial curve, poor fit]",–
Cc1c(C#N)c(NC(=O)CCl)n(Cc2ccc(F)cc2)c1C,inactive,–
Cc1cnc(NC(=O)CSc2ccc(Cl)cc2)s1,inactive,–
O=S(=O)(Nc1nc2n(n1)C(c1ccccc1)C=C(c1ccc(Cl)cc1)N2)c1ccccc1 (stereo not given),"inconclusive: 100 µM [inhibitor, single point]",–
NC(=O)c1ccc2nc(NC(=O)c3ccc(N)cc3)sc2c1,inactive,–
O=C(Nc1ccc(Cl)cc1Cl)c1cn2c(n1)CN(C(=O)c1ccccc1F)CC2,"inconclusive: 89.1 µM [inhibitor, partial curve, poor fit]",–
COc1ccc(-c2cccc(NS(=O)(=O)c3cc(C)c(Cl)cc3C)c2)nn1,inactive,–
O=C(O)c1cccc(-c2csc(C(O)c3ccccc3)n2)c1 (stereo not given),"inconclusive: 158 µM [inhibitor, single point]",–
N#Cc1ccc(C(=O)N2CCC3(CC2)NC(=O)N(Cc2cccc(Cl)c2)C3=O)cc1,"inconclusive: 35.5 µM [inhibitor, partial curve]",–
Fc1ccccc1OCCCN1CCOCC1,"inconclusive: 1.41 µM [inhibitor, full curve, poor fit]",–
CC(CC(=O)OCC(=O)Nc1ccc2[nH]c(=O)[nH]c2c1)c1ccccc1 (stereo not given),"inconclusive: 158 µM [inhibitor, single point]",–
O=C(Cc1cccn1-c1ccc(F)cc1)NC1CCCC1,"inconclusive: 5.01 µM [inhibitor, full curve, poor fit]",–
COc1cccc2c(Nc3ccccc3C)cc(C)nc12,inactive,–
CCOc1ccc(CCNC(=O)c2cc3c(-c4cccc(OC)c4)nn(C)c3s2)cc1OCC,inactive,–

SMILES,Potency,"activity change, negative = inhibition"
O=C(NCCc1noc(-c2ccncc2)n1)C1CC(=O)N(c2ccc(F)c(Cl)c2)C1 (stereo not given),inactive,–
Cc1cccc(Cn2c(C)c(C)c3cc(C(=O)NCc4ccc(C)o4)ccc32)c1,"inconclusive: 50.1 µM [inhibitor, partial curve, poor fit]",–
CCc1c(C)sc(NC(=O)c2ccc(Cl)c(Cl)c2)c1C#N,"inconclusive: 25.1 µM [inhibitor, partial curve]",–
CCN(C(=O)CSc1nnc(-c2ccc(F)cc2)n1C)C1CCS(=O)(=O)C1 (stereo not given),inactive,–
Cc1cccc(C(CC(=O)NCC2(c3ccccc3)CCCC2)c2ccccc2)c1O (stereo not given),–,inconclusive: -40.4% [inhibitor]
CCC(C(=O)NCCc1ccc(Cl)cc1)n1nc(C)c2c(C)n(-c3ccccc3)nc2c1=O (stereo not given),"inconclusive: 70.8 µM [inhibitor, partial curve, poor fit]",–
COc1ccc(C2=NCC(C)n3nc4cc(C(F)(F)F)ccc4c32)cc1 (stereo not given),"inconclusive: 50.1 µM [inhibitor, partial curve, poor fit]",–
Cc1ccc2occ(/C=N/NC(=O)c3ccccc3C)c(=O)c2c1,"inconclusive: 44.7 µM [inhibitor, partial curve]",–
COc1ccc(Br)cc1CN(C)CC(=O)Nc1cccc(S(=O)(=O)N2CCCC2)c1,inactive,–
CN(c1ccc(Cl)cc1)c1cc(=O)n(C)c2ccccc12,"inconclusive: 112 µM [inhibitor, single point]",–
Cc1nc(CCNC(=O)C2CCCC2)no1,"inconclusive: 28.2 µM [inhibitor, partial curve]",–
CCN1CCN(C(=S)NC(=O)c2cc(OC)c(OC)c(OC)c2)CC1,"inconclusive: 15.8 µM [inhibitor, full curve, poor fit]",–
CNC(=O)[C@@H]1C[C@@H](O)CN1C1CCN(C(=O)c2cc3ccccc3[nH]2)CC1,inactive,–
Fc1ccc(NC(=S)Nc2ccc(Cl)cc2Cl)cc1,"inconclusive: 70.8 µM [inhibitor, partial curve, poor fit]",–
CC(=O)N[C@H]1CN(c2cncc(C(=O)N3CCCC3)n2)C[C@@H]1C1CC1,"inconclusive: 11.2 µM [inhibitor, full curve]",–
Cc1ccc(Nc2nnc(SCC(=O)NCCN3C(=O)CSC3=O)s2)cc1C,inactive,–
CCC(C)NC(=O)CC(c1ccccc1)c1cc(C)ccc1O (stereo not given),inactive,–
O=C(CN1C(=O)NC(c2ccc(Cl)cc2)C2=C1COC2=O)Nc1cccc(Br)c1 (stereo not given),active: 10 µM,–
COc1ccc(CCNC(=O)C(C)Sc2ccccc2)cc1OC (stereo not given),"inconclusive: 126 µM [inhibitor, single point]",–
Cc1ccccc1OCC(=O)N/N=C/C=C/c1ccccc1,inactive,–
Cc1ccc(CC2(c3ccccc3)NC(=O)NC2=O)cc1 (stereo not given),inactive,–
CC(=Nc1ccccc1N)c1c(C)cc(=O)n(O)c1O,"inconclusive: 12.6 µM [inhibitor, partial curve, poor fit]",–
O=C(c1cccc(C(F)(F)F)c1)N1CCC(c2n[nH]c(=O)n2-c2ccccc2)CC1,"inconclusive: 15.8 µM [inhibitor, full curve, poor fit]",–
Cc1ccc(Nc2nccc(N(C)c3ccc4c(C)n(C)nc4c3)n2)cc1S(N)(=O)=O,"inconclusive: 3.98 µM [inhibitor, full curve, poor fit]",–

# Among those listed so far, 3 have an NH in an aromatic ring.
SMILES,Potency,"activity change, negative = inhibition"
CC(CC(=O)OCC(=O)Nc1ccc2[nH]c(=O)[nH]c2c1)c1ccccc1 (stereo not given),"inconclusive: 158 µM [inhibitor, single point]",–
CNC(=O)[C@@H]1C[C@@H](O)CN1C1CCN(C(=O)c2cc3ccccc3[nH]2)CC1,inactive,–
O=C(c1cccc(C(F)(F)F)c1)N1CCC(c2n[nH]c(=O)n2-c2ccccc2)CC1,"inconclusive: 15.8 µM [inhibitor, full curve, poor fit]",–

# Going on with the list:

SMILES,Potency,"activity change, negative = inhibition"
O=C1COc2ccc(-c3ccsc3)nc2CN1Cc1ccccc1,"inconclusive: 56.2 µM [inhibitor, partial curve, poor fit]",–
Cc1cnc(C(=O)N2CCC(c3nnc(CN4CCCC4)n3C3CC3)CC2)cn1,"inconclusive: 22.4 µM [inhibitor, full curve, poor fit]",–
O=C(CSc1oc(-c2ccco2)nc1S(=O)(=O)c1ccc(Cl)cc1)c1ccccc1,"inconclusive: 44.7 µM [inhibitor, partial curve, poor fit]",–
Nc1cnccc1C(=O)O,"inconclusive: 0.282 µM [inhibitor, full curve, poor fit]",–
Cn1nc(C(=O)Nc2cccc(I)c2)c2ccccc2c1=O,"inconclusive: 7.94 µM [inhibitor, full curve, poor fit]",–
O=C(CNC(=O)c1ccc(Br)cc1)Nc1ccc2c(c1)CCC2,"inconclusive: 3.55 µM [inhibitor, full curve, poor fit]",–
CCOc1ccc2nc(N3CCCN(C(=O)Nc4ccccc4C)CC3)c(C#N)cc2c1,"inconclusive: 44.7 µM [inhibitor, partial curve, poor fit]",–
Cc1nc2c(c(-c3ccc(O)cc3)n1)CN(Cc1ccccn1)CC2,inactive,–
Cc1ccccc1-n1ccnc1SCC(=O)c1ccccc1F,inactive,–
COc1cc(CNn2cnnc2)ccc1OCc1ccccc1F,inactive,–
COc1ccc(N2C(=O)/C(=C/c3cccs3)NC2=S)cc1,"inconclusive: 35.5 µM [inhibitor, partial curve]",–
S=c1nc(C2CC2)n(-c2ccccc2)[nH]1,"inconclusive: 44.7 µM [inhibitor, partial curve]",–
N#Cc1c(SCC(N)=O)nc2c(c1-c1cccs1)CCCC2,inactive,–
O=C(/C=C/C1=Cc2ccccc2OC1)c1cccc(O)c1,"inconclusive: 35.5 µM [inhibitor, partial curve, poor fit]",–
Cc1cccc(C(=O)Nc2ccc(N3CCC(CCN4CCOCC4)CC3)c(C(=O)O)c2)c1,"inconclusive: 39.8 µM [inhibitor, partial curve, poor fit]",–
CC(=O)c1ccc[n+](CC(=O)NC(C)c2ccccc2)c1 (stereo not given),"inconclusive: 126 µM [inhibitor, single point]",–
COc1ccccc1CNc1ncnc2ccc(-c3ccc(N(C)C)cc3)cc12,"inconclusive: 3.98 µM [inhibitor, full curve, poor fit]",–
Cc1ccccc1N1CCN(Cc2ccc(Br)o2)CC1,"inconclusive: 3.16 µM [inhibitor, full curve, poor fit]",–
COc1ccc(/C=C(\C#N)C(=O)Nc2ccccc2C(=O)O)cc1OC(=O)c1ccccc1Cl,active: 39.8 µM,–
Cc1cc(NC(=O)CCC(=O)N(c2ccccc2)C(C(=O)NCC2CCCO2)c2cccnc2)no1 (stereo not given),"inconclusive: 4.47 µM [inhibitor, full curve, poor fit]",–
CN(CCOC(=O)c1ccccc1Br)C(C)(C)C,inactive,–
COc1ccc(S[C@]2(c3nc(C)no3)CC(=O)N(C(=O)C3CC3)[C@@H]2c2ccc(OC)cc2)cc1,"inconclusive: 28.2 µM [inhibitor, single point]",–
